Results are given in words; binding and its absence hold for the method and conditions named. Binding seen in cells or lysates may run through a third protein. Some binding calls cover weakened binding; strength is not graded here. Tags and fused reporters may be left off the sequences shown.
Columns and labels:
[1] = target: T1, recombinant His-tagged rRv2626c (Mycobacterium tuberculosis H37Rv) (UniProt P9WJA3); assay: co-IP; THP-1 cells and BMDMs stimulated with rRv2626c (2.5 μg/ml) for the indicated times; IP with αHis or αTRAF6, IB with αTRAF6 and αHis; only the target purified
T1 sequence: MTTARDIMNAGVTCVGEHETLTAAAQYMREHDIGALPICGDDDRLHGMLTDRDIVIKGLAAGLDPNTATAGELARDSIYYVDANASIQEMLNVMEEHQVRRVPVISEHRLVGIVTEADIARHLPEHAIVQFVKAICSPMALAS

[2] = target: T2, Myc-Rv2626c in stable Raw264.7 or THP-1 cells (Mycobacterium tuberculosis H37Rv) (UniProt P9WJA3); assay: co-IP
T2 sequence: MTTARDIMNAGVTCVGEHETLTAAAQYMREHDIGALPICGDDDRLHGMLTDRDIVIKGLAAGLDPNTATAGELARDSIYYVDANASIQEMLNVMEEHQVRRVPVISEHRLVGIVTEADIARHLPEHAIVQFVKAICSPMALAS

B1: endogenous TRAF6 of mouse cells (protein, UniProt P70196 1-530)
chain: MSLLNCENSCGSSQSSSDCCAAMAASCSAAVKDDSVSGSASTGNLSSSFMEEIQGYDVEFDPPLESKYECPICLMALREAVQTPCGHRFCKACIIKSIRDAGHKCPVDNEILLENQLFPDNFAKREILSLTVKCPNKGCLQKMELRHLEDHQVHCEFALVNCPQCQRPFQKCQVNTHIIEDCPRRQVSCVNCAVSMAYEEKEIHDQSCPLANIICEYCGTILIREQMPNHYDLDCPTAPIPCTFSVFGCHEKMQRNHLARHLQENTQLHMRLLAQAVHNVNLALRPCDAASPSRGCRPEDPNYEETIKQLESRLVRQDHQIRELTAKMETQSMYVGELKRTIRTLEDKVAEMEAQQCNGIYIWKIGNFGMHLKSQEEERPVVIHSPGFYTGRPGYKLCMRLHLQLPTAQRCANYISLFVHTMQGEYDSHLPWPFQGTIRLTILDQSEALIRQNHEEVMDAKPELLAFQRPTIPRNPKGFGYVTFMHLEALRQGTFIKDDTLLVRCEVSTRFDMGGLRKEGFQPRSTDAGV
B1 was tested, and the binding [1] was “binds” and the binding [2] was “binds”.

Source: publication PMC7721357
